The record followed here is article PMC3988052.

Results are given in words; binding and its absence hold for the method and conditions named. In cells and extracts the contact can be indirect. Tags and fused reporters may be left off the sequences shown.

This assay addresses T1, ATHB17Δ113::MYC-HA (C-terminal MYC-HA fusion of ATHB17Δ113) (Arabidopsis) (UniProt Q8S9N6).
T1 sequence: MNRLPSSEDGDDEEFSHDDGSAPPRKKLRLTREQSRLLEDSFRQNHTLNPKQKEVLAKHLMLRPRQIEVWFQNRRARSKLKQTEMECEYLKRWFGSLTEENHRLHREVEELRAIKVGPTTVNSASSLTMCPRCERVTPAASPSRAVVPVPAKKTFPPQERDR
Nature of the assay: co-IP; bead-based co-immunoprecipitation with Luminex on-bead detection; lysates of co-transformed maize leaf protoplasts; capture on anti-MYC magnetic beads, detection with biotinylated anti-CFP and NeutrAvidin R-phycoerythrin; signal above mean + 3 sigma of the negative controls counted as positive.

As for “Zmhdz3 (maize HD-Zip I protein), CFP tagged”, the binding entry is listed as “no binding”.
